For assay [1], the target named is GBD–NtNPR1 (tobacco (N. tabacum)) (UniProt Q8LL13). Briefly: yeast three-hybrid.
Another assay concerns the target GBD–AtNPR1 (Arabidopsis) (UniProt P93002). The assay can be described thus: two-hybrid.
The target of assay [2] is GBD–NtNPR1 (tobacco (N. tabacum)) (UniProt Q8LL13). Briefly: two-hybrid.
Assay [3] deals with GBD–TGA7Δ1 (tobacco (N. tabacum)). Briefly: two-hybrid.
Assay [4] has as its target GBD–NtTGA1aΔ1 (tobacco (N. tabacum)). The assay can be described thus: two-hybrid.
In assay [5] the target is GBD–NtNPR1 (tobacco (N. tabacum)) (UniProt Q8LL13). Briefly: two-hybrid. This is another data set of the same source.
Assay [6] addresses NtNPR1(386-525) (tobacco (N. tabacum)). The assay can be described thus: two-hybrid.
Assay [7] addresses GBD–NtTGA2.2 (tobacco (N. tabacum)) (UniProt Q9SQK1). Briefly: two-hybrid.
The target in assay [8] is NtNPR1(1-465) (tobacco (N. tabacum)). Briefly: two-hybrid.

Protein sequences, listed by entry. Tags and fused reporters are not part of them.
UniProt P93002: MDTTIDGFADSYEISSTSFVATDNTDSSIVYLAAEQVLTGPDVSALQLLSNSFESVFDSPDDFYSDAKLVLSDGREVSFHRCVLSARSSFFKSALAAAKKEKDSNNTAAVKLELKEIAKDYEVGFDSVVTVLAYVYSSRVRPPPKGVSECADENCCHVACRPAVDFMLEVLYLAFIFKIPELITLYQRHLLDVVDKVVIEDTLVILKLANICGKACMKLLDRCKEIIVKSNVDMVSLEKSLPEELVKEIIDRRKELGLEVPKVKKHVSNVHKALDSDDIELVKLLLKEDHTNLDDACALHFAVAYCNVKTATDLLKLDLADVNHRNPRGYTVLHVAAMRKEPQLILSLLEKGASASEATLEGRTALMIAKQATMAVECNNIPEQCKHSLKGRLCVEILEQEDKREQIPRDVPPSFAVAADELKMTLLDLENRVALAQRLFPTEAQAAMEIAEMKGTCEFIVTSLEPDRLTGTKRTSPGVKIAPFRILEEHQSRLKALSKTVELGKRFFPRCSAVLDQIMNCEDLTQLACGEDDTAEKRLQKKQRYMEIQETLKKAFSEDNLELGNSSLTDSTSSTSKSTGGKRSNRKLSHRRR

These are yes or no findings as the source states them, for the method shown. For some assays here: Binding can be weak; no strength is given.

As to “NtNIMIN2a expressed from the MET25 promoter (from UniProt O82448)”, the binding entry in [1] is given as “binds”.
Same read-out and setting: the entry for “NtNIMIN2c expressed from the MET25 promoter (from UniProt A0FJY4)” is “binds”.
With GAD–NtTGA2.2 (from UniProt Q9SQK1), the binding result is listed as “binds” in the assay with GBD–AtNPR1 (Arabidopsis) and “binds weakly” in assay [2].

B1: AtGRXC6 (protein, UniProt Q8L9S3 1-144)
chain: MMQELGLQRFSNDVVRLDLTPPSQTSSTSLSIDEEESTEAKIRRLISEHPVIIFSRSSCCMCHVMKRLLATIGVIPTVIELDDHEVSSLPTALQDEYSGGVSVVGPPPAVFIGRECVGGLESLVALHLSGQLVPKLVQVGALWV
In the case of B1, the binding entry in assay [3] is “binds”.

B2: AtGRXC9 (protein, UniProt Q9SGP6 1-137)
chain: MQGTISCARNYNMTTTVGESLRPLSLKTQGNGERVRMVVEENAVIVIGRRGCCMCHVVRRLLLGLGVNPAVLEIDEEREDEVLSELENIGVQGGGGTVKLPAVYVGGRLFGGLDRVMATHISGELVPILKEVGALWL
As for B2, in assay [3], the binding result is recorded as “binds”.

B3: GAD–NtTGA1a (protein, UniProt P14232 1-359)
chain: MGICDPIHQLGMWDDFNSSFPSTSATMILEVDKCLEDQIPIMEKRLDNETEDTSHGTVGTSNRYEPETSKPVEKVLRRLAQNREAARKSRLRKKAYVQQLENSKLKLIQLEQELERARKQGMCVGGGVDASQLSYSGTASSGTAVFDMEYGHWVEEQTRQTNDLRIALHSQIGEAELRIIVDGYLNHYFDLFRMKATAAKADVLYIMSGMWKTSAERFFMWIGGFRPSELLKVLTPHLELLTEQQLREVCNLTQSCQQAEDALSQGMVKLHQILAEAVAAGRLGEGNYTLPQMGPAIEKLEDLVRFVNQADHLRQETLQQMSRILNTCQAAQGLLALGEYFERLRVLSSQWATRLREPT
For B3, the binding entry in assay [3] and in assay [4] was “binds” each time.

B4: GAD–NtTGA2.1 (protein, UniProt O24160 1-456)
chain: MASKIGTAGNRSGTTGMPSFISQIPVSNPMGTEANNTNTSRMSDFGVLEQYLGFRIGDGANVNRSPLFNSTSATNPAVGFEVSGTINRTLAPSNTSLPTATPRSQTMLLQSNLVSASGTHHENWGESNMADSGSRTDTSTDMDGDDKNQLIEAGQSSDKSKEKVLDQKTLRRLAQNREAARKSRLRKKAYVQQLENSRLKLSQLEQDLQRARQQGKYISNIADQSNGVGANGPLAFDAEYSRWLEEHNKHINELRTAVNAHASDPELRSIVNNVTAHFDEVFRVKGNAAKADVFHVLSGMWKTPAERCFMWIGGFRPSELLKLLVNQLEPLTEQQLAGIYNLQQSSHQAEDALSQGMEALQQSLAETLANGSPAPEGSSGDVANYMGQMAMAMGKLGTLEGFLRQADNLRQQTLQQMHRVLTTRQSARALLAINEYFSRLRALSSLWLARPREQLV
Consider B4, for which the binding result was “binds” in assay [3]; “binds weakly” in assay [5]; “no binding” in [6]; “binds” in assay [4]; “binds” in [7]; “binds” in [8].
